The target of this assay is T1, Jlp2-FLAG (S. cerevisiae) (UniProt P40206).
T1 sequence: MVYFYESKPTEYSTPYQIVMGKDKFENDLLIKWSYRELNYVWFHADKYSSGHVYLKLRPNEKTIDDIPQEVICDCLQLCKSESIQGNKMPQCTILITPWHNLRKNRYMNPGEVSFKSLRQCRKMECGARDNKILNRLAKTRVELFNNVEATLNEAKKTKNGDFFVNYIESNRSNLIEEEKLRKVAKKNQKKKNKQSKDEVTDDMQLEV
Description: affinity purification with mass spectrometry.

Amino acid sequences for entries named in this document (tags omitted).
UniProt Q12532: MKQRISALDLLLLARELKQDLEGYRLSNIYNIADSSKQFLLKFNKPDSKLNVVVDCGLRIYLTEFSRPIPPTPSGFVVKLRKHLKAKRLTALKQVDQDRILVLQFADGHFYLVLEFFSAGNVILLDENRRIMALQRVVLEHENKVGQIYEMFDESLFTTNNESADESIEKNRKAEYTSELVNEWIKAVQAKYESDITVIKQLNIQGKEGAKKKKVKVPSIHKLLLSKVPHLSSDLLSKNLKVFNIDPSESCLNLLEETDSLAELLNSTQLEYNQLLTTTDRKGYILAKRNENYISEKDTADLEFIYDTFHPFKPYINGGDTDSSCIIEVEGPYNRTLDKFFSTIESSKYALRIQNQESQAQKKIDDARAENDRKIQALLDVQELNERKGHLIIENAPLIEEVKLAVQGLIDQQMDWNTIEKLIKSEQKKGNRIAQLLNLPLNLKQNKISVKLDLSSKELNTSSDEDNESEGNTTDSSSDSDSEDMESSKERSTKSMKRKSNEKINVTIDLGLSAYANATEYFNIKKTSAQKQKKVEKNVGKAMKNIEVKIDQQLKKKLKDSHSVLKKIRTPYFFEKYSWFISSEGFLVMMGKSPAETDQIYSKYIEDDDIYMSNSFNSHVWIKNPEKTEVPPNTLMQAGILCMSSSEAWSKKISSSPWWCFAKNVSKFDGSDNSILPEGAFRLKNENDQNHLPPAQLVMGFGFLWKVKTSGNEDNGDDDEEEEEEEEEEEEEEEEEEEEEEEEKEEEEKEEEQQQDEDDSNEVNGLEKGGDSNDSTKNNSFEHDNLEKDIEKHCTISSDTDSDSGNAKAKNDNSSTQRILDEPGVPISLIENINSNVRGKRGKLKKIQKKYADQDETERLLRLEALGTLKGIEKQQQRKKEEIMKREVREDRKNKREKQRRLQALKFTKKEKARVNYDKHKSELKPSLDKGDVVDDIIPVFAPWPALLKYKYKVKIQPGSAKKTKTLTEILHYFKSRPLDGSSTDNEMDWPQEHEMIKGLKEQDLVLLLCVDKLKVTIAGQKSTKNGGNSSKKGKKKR
UniProt Q04781: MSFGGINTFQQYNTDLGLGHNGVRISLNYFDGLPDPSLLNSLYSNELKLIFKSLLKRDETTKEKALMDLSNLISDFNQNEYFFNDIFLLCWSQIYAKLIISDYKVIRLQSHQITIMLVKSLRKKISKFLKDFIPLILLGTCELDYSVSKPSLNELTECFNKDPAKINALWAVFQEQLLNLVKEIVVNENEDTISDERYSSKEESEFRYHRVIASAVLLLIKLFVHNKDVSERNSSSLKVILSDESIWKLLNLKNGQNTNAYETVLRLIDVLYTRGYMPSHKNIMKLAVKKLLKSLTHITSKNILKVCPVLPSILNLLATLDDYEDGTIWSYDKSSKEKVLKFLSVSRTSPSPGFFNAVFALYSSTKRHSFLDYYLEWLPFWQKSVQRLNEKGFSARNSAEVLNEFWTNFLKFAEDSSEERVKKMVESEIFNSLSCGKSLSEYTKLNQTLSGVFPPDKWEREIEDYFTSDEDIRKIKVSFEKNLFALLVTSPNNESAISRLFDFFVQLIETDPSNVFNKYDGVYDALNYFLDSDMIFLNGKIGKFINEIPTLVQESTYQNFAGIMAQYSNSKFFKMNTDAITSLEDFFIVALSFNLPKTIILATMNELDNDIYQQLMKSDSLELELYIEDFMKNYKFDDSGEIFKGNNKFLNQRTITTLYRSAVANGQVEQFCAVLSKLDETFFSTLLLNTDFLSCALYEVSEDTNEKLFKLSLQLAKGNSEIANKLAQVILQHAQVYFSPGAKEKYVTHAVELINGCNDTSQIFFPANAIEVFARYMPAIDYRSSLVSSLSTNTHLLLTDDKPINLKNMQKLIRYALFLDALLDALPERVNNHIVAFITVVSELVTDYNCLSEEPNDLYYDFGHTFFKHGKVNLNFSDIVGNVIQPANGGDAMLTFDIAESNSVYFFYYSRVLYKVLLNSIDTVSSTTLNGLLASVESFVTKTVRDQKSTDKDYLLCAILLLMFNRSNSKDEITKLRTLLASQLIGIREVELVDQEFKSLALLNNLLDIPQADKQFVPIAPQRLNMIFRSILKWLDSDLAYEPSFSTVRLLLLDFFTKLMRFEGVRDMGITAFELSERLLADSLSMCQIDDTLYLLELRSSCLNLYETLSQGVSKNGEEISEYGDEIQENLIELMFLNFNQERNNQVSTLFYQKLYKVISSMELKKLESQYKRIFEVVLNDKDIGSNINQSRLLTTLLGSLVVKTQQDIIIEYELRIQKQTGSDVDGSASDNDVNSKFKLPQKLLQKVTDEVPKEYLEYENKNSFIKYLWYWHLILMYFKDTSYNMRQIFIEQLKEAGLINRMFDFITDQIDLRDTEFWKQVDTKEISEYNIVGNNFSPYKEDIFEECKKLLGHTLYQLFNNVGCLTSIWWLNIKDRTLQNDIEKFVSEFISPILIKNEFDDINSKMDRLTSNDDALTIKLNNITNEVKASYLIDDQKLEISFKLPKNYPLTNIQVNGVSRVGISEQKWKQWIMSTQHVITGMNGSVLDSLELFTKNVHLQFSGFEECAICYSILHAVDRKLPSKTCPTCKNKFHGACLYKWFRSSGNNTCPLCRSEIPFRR

No constants are given. Whether binding was seen depends on the method and setting. Binding seen in cells or lysates may run through a third protein. These calls come from enrichment with a bait or labelling near it, and not all partners need be listed. A no says only that the protein was not detected with the bait. Sequences can lack the tags named with a protein.

As to Rqc2 (from UniProt Q12532 1-1038), the binding entry was “no binding”.

Consider “Ltn1 (from UniProt Q04781 1-1562) (enzyme)”, for which the binding entry is on record as “no binding”.

B1: Pth2 (enzyme, UniProt P34222 1-208)
chain: MEKMTVSSNYTIALWATFTAISFAVGYQLGTSNASSTKKSSATLLRSKEMKEGKLHNDTDEEESESEDESDEDEDIESTSLNDIPGEVRMALVIRQDLGMTKGKIAAQCCHAALSCFRHIATNPARASYNPIMTQRWLNAGQAKITLKCPDKFTMDELYAKAISLGVNAAVIHDAGRTQIAAGSATVLGLGPAPKAVLDQITGDLKLY
For B1, the binding result is reported as “no binding”.

B2: Arb1 (protein, UniProt P40024 1-610)
chain: MPPVSASKAKRDAKKAEREAKKAAAGKTIRKLGRKKEAAAEESEVDAAAREIKMMKLQQDKDGLSDRVVTGVLSSLETSRDIKLSSVSLLFHGKVLIQDSGLELNYGRRYGLLGENGCGKSTFLKALATREYPIPEHIDIYLLDEPAEPSELSALDYVVTEAQHELKRIEDLVEKTILEDGPESELLEPLYERMDSLDPDTFESRAAIILIGLGFNKKTILKKTKDMSGGWKMRVALAKALFVKPTLLLLDDPTAHLDLEACVWLEEYLKRFDRTLVLVSHSQDFLNGVCTNMIDMRAQKLTAYGGNYDSYHKTRSELETNQMKQYNKQQEEIQHIKKFIASAGTYANLVKQAKSRQKILDKMEADGLVQPVVPDKVFSFRFPQVERLPPPVLAFDDISFHYESNPSENLYEHLNFGVDMDSRIALVGPNGVGKSTLLKIMTGELTPQSGRVSRHTHVKLGVYSQHSQDQLDLTKSALEFVRDKYSNISQDFQFWRGQLGRYGLTGEGQTVQMATLSEGQRSRVVFALLALEQPNVLLLDEPTNGLDIPTIDSLADAINEFNGGVVVVSHDFRLLDKIAQDIFVVENKTATRWDGSILQYKNKLAKNVVL
Consider B2, for which the binding result is given as “no binding”.

B3: Yhr033w (protein, UniProt P38690 1-423)
chain: MTKAYTIVIKLGSSSLVDESTKEPKLSIMTLIVETVTNLKRMGHKVIIVSSGGIAVGLDALNIPHKPKQLSEVQAIAAVGQGRLIARWNMLFSQYGEQTAQILLTRNDILRWNQYNNARNTINELLAMGVIPIVNENDTLSISEIEFGDNDTLSAITAALVGADFLFLLTDVDCLYTDNPRTNPDARPIVLVPELSEGLPGVNTSSGSGSEVGTGGMRTKLIAADLASNAGIETIVMKSDRPEYVPKIVDYIQHHFRPPRHIGNGTQQQFLDLQDTELEQLRRYDVPMHTKFLANDNKHKLKNREFWILHGLITKGAIIIDENSYDKLLSKDMASLTPNAVIEVRDNFHELECVDLKIGQRLPNGELDISKPIQSVGCVRSNYTSLELAKIKGLPSEKIHDVLGYSVSEYVAHRENIAFPPQF
On to B3, for which the binding result is reported as “binds”.

B4: Rqc1 (protein, UniProt Q05468 1-723)
chain: MSSRALRRLQDDNALLESLLSNSNANKMTSGKSTAGNIQKRENIFSMMNNVRDSDNSTDEGQMSEQDEEAAAAGERDTQSNGQPKRITLASKSSRRKKNKKAKRKQKNHTAEAAKDKGSDDDDDDEEFDKIIQQFKKTDILKYGKTKNDDTNEEGFFTASEPEEASSQPWKSFLSLESDPGFTKFPISCLRHSCKFFQNDFKKLDPHTEFKLLFDDISPESLEDIDSMTSTPVSPQQLKQIQRLKRLIRNWGGKDHRLAPNGPGMHPQHLKFTKIRDDWIPTQRGELSMKLLSSDDLLDWQLWERPLDWKDVIQNDVSQWQKFISFYKFEPLNSDLSKKSMMDFYLSVIVHPDHEALINLISSKFPYHVPGLLQVALIFIRQGDRSNTNGLLQRALFVFDRALKANIIFDSLNCQLPYIYFFNRQFYLAIFRYIQSLAQRGVIGTASEWTKVLWSLSPLEDPLGCRYFLDHYFLLNNDYQYIIELSNSPLMNCYKQWNTLGFSLAVVLSFLRINEMSSARNALLKAFKHHPLQLSELFKEKLLGDHALTKDLSIDGHSAENLELKAYMARFPLLWNRNEEVTFLHDEMSSILQDYHRGNVTIDSNDGQDHNNINNLQSPFFIAGIPINLLRFAILSEESSVMAAIPSFIWSDNEVYEFDVLPPMPTSKESIEVVENIKTFINEKDLAVLQAERMQDEDLLNQIRQISLQQYIHENEESNENEG
With B4, the binding entry is given as “no binding”.

B5: peptidyl-tRNA hydrolase Pth1 (enzyme, UniProt P38876 1-190)
chain: MSGKWRLVLTGIGNPEPQYAGTRHNVGLYMLELLRKRLGLQGRTYSPVPNTGGKVHYIEDEHCTILRSDGQYMNLSGEQVCKVWARYAKYQARHVVIHDELSVACGKVQLRAPSTSIRGHNGLRSLLKCSGGRVPFAKLAIGIGREPGSRSRDPASVSRWVLGALTPQELQTLLTQSEPAAWRALTQYIS
Regarding B5, the binding result is on record as “binds”.

B6: Pro1 (protein, UniProt P32264 1-428)
chain: MKDANESKSYTIVIKLGSSSLVDEKTKEPKLAIMSLIVETVVKLRRMGHKVIIVSSGGIAVGLRTMRMNKRPKHLAEVQAIAAIGQGRLIGRWDLLFSQFDQRIAQILLTRNDILDWTQYKNAQNTINELLNMGVIPIVNENDTLSVREIKFGDNDTLSAITSALIHADYLFLLTDVDCLYTDNPRTNPDAMPILVVPDLSKGLPGVNTAGGSGSDVGTGGMETKLVAADLATNAGVHTLIMKSDTPANIGRIVEYMQTLELDDENKVKQAYNGDLTDLQKREFEKLKALNVPLHTKFIANDNKHHLKNREFWILHGLVSKGAVVIDQGAYAALTRKNKAGLLPAGVIDVQGTFHELECVDIKVGKKLPDGTLDPDFPLQTVGKARCNYTSSELTKIKGLHSDQIEEELGYNDSEYVAHRENLAFPPR
For the molecule B6, the binding entry is given as “binds”.

B7: Vms1 (enzyme, UniProt Q04311 1-632)
chain: MNSQKASKMTGSLKKNDLYIFDLSEQLLNSLKLMSFDSTLREVEVEKTSDNDRNKESGDLQIARKKVTSNVMRCSVCQMSFDSRNEQKAHYQTDYHLMNVKRNLRGLDILSVEEFDALISKEHGIKSEDENSGGEQTSSDHEESEEASDRDPDLQTNNYMETIIENDLQKLGFQKDESDAISHINTQSPYIYFKSKYLQKNEVLAIYKSLFNKRSLSNPNEALTFWNSQENPMAISALFMVGGGHFAGAIVSHQRLNVKGNAHKKDETLIEQAVNFLEHKTFHRYTTRRKQGGSQSAMDNAKGKANSAGSALRRYNESALKTDIQGVLKDWEPYLSKCDNIFIRARNVSDKKIFTDNTVLNKGDERIKSFPFTTNRPTVLELKKAWCELSYLKILPKPEPLAVKETVQKLEVSNKKDEFKEKQEPLLEEIQTEEIISLLKKGRAPLLISFLKKNKLDGNFRLKPESKYSLTPTMLHYASQQGMKQMALILLSNIKCDPTIKNRLGRTAWDLNRNDDVRHAFQIARYNLGESFTNWDETHIGQPLSREQVDEINEKKKAIENEKAEKLIKLELEAAKEKQRFAKDAERGPGKKLTNIPSIQQQNLNSLTDEQRRRLMREQRARAAEERMKKKY
With B7, the binding entry is “binds”.
